“Also recorded” adds a separate entry of the source. For some of these results: At least one structure is not confirmed: it was looked up by name or label, or the drawing left a doubt. Some results were stated once for a whole list of compounds, not compound by compound.
Assays:
[1] = Brain and plasma concentrations in rats; type: in vivo, rat; conditions: 10 mg/kg IP, male rats
Male WKY rats = assay: Sleep-wake behavior, EEG power, body temperature and locomotor activity in WKY rats; type: in vivo, rat
Experimental: Male WKY rats (n=7, 289-388 g at the start of dosing) were housed in groups of 2-3 animals per cage with standard housing conditions. For implantation of the EEG electrodes and radio transmitter, the animals were anesthetized with isoflurane (2-5% in oxygen at 11/min) throughout the procedure. The scalp, neck and right flank were cleared of hair using clippers and cleaned using diluted Hibitane (chlorhexidine, 50% (v/v) in water). A non-steroidal anti-inflammatory agent was administered (carprofen 5 mg/kg, s.c.) and the animals placed on a homeothermic blanket (37° C.) with the head fixed in a stereotaxic frame. Incisions were made in the scalp and neck, as well as in the right flank. Blunt dissection of the abdominal muscle was then made to gain access to the peritoneal cavity. A radio transmitter (HD-S02, Data Sciences International) was implanted in the peritoneal cavity and secured to the muscle wall with non-absorbable sutures. The wires of the transmitter were passed using a 19G needle through the muscle wall and then sub-dermally to the scalp to act as Electroencephalogram (EEG)/Electromyograph (EMG) electrodes. The scalp was cleared of connective tissue and two craniotomies were made with a trepanning drill (fronto-parietal coordinates; Bregma+2 mm anterior, midline+1.0 mm lateral and Lambda 0 mm, +1.5 mm lateral). The positive EEG electrode was attached to the anterior craniotomy and the negative EEG electrode to the posterior craniotomy. Both electrodes were secured in place using a suitable adhesive agent (cyanoacrylate gel, RS components). A second set of electrodes were sutured into the nuchal muscle to act as EMG electrodes. All incisions were closed using absorbable suture.
All animals were allowed to recover in a warm environment and given 5 ml of saline subcutaneously (s.c.). Animals were kept singly in the cage until the next day, then pair housed for the duration of post-surgical recovery (minimum 7 days). During the recovery period, the rats received 5 days of standard post-operative care with no further experimental procedures until the pre-operative body weight was regained. The animals were maintained on a 12/12 hour light dark cycle (08:00 am lights on) after the surgery. Home cages and post-operative cages contained bedding and nesting material, along with environmental enrichment such as wooden chew-sticks and plastic tunnels.
On test days, ˜60 minutes after lights-on, animals were placed in recording boxes similar to their home-cages, except that environmental enrichment was restricted to a large bundle of nesting and bedding material, to avoid interference with the telemeter signals. Then, data acquisition was initiated for confirmation of signal quality. EEG and EMG data were acquired using intraperitoneal HD-S02 transmitters (DSI, New Brighton, MN) and Spike2 software (CED). EEG and EMG signals were digitized 500 samples/second, amplified 1000× and bandpass filtered at 0.5-100 Hertz (Hz). After 60 minutes of habituation, each animal was briefly removed from its box and dosed via the intraperitoneal (i.p.) route in a volume of 2 mL/kg. Test conditions included saline vehicle, psilocybin (10 mg/kg) positive control, compound 2-1 at 3, 10 and 30 mg/kg and compound 2-2 at 10, 17 and 30 mg/kg. Doses were based on the molecular weight of the free bases. compound 2-1 and compound 2-2 dosing solutions were prepared in 40% (w/v) hydroxypropyl-beta-cyclodextrin. After dosing, animals were immediately put back into the recording boxes, the experimenter left the room, and recordings continued uninterrupted for 23 hours. At the end of the recording session, the transmitters were turned off and the animals were returned to their home cages. All animals received all treatment conditions in a pseudo randomized cross-over fashion with a minimum washout period of 7 days between doses.
All data was aligned to zero (the time of dosing), with epochs defined as non-overlapping 10-second time segments. […]

Sequences of proteins named here, by UniProt entry; tags and fusion partners are left off.
UniProt P35363, whole entry: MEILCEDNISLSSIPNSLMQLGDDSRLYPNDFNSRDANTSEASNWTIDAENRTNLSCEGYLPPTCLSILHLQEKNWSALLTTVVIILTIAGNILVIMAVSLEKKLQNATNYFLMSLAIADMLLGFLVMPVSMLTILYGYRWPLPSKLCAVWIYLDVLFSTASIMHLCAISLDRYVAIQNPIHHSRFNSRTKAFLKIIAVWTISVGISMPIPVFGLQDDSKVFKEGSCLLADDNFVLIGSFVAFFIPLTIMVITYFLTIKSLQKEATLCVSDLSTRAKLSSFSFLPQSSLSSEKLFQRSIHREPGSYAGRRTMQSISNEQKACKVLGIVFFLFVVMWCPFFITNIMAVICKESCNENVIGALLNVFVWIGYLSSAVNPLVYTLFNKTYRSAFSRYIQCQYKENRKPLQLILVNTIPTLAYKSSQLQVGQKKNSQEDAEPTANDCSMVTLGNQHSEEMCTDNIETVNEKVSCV

[2] = target: T1, 5-HT2A receptors in the mouse frontal cortex (Mus musculus, UniProt P35363); assay: Ex vivo 5-HT2A receptor occupancy ([3H]cimbi-36) in mouse frontal cortex; conditions: 3 mg/kg IP, 15 minutes post dosing
T1 construct: Left frontal cortices from each animal were homogenized individually; from tissue

C57BL/6J male mice = assay: Mouse forced swim test 24 hr after single administration; type: in vivo; conditions: 5 mg/kg i.p., 24 hr post-administration
Experimental: Young adult C57BL/6J male mice (8-9 weeks old at arrival; n=113) were purchased from Charles River (DE). All C57BL/6J mice were housed in groups of 4 per cage. Mice were maintained under controlled conditions (21±2° C., 50±1% humidity, 12/12 h light/dark cycles, lights on at 7 a.m.) with food and water available ad libitum.
Experimental Design: The experimental procedures were in accordance with the European Communities Council Directive (Directive 2010/63 EU into the Polish Directives (Journal of Laws of 2021, item 1331, as amended)) and approved by the Local Ethic Committee in Olsztyn (Approval No. 27/203 from 22 Mar. 2023). Animals were subjected to a single injection of either vehicle, psilocybin (5 mg/kg i.p), compound 2-1 (3, 10 or 30 mg/kg, i.p.) or compound 2-2 (3, 10 or 30 mg/kg, i.p.). 24 hrs later, each mouse was tested in the forced swim test. […]
Forced Swim Test: After 17 days of acclimatization (11-12 weeks old), all mice were randomly assigned to experimental groups (n=14-15/group). Sample size (n=14 per group) was determined based on G-power calculations using alpha 0.05, t-test and effect size calculation based on mean and SD from vehicle and positive control groups. […] Because little immobility is observed during the first 2 minutes of the FST, only immobility occurring during the last 4 minutes was scored and analyzed. […] All test sessions were recorded using a video camera placed on the side of the cylinder for subsequent behavioral analysis by scorers blinded to the treatment conditions. […]
Data Analysis: Data for each compound have been analyzed separately using the GraphPad Prism 9 statistical software. For compound 2-1, immobility time in the forced swim test was analyzed by ordinary one way ANOVA. […] Acute effect of reference substance (psilocybin 5 mg/kg, 24 hr) on immobility time in the FST was determined by unpaired t test. […]

[3] = 10 mg/kg i.p., positive control
[4] = male WKY rats, IP, initial 4 hours following dosing

SMILES | time with high brain relative to plasma concentrations [1] [h] | brain oscillations in the alpha frequency (8-12 Hz) range during waking (Male WKY rats; 10 mg/kg i.p.) | amount of time spent in REM sleep vs vehicle (Male WKY rats; [3]) | latency to REM sleep vs vehicle (Male WKY rats; [3]) | low frequency (delta and theta) power during non-REM sleep (Male WKY rats; 10 mg/kg i.p., reference control) | amount of waking vs vehicle (Male WKY rats; 10 mg/kg i.p., 0 hour interval) | amount of time spent in non-REM sleep vs vehicle (Male WKY rats; 10 mg/kg i.p., hour interval starting at 1 hour post dose) | non-REM sleep amount vs vehicle (Male WKY rats; 10 mg/kg i.p., intervals starting at 0 and 4 hours post dose) | high gamma power during waking (Male WKY rats; 10 mg/kg i.p., more limited time course) | waking high gamma power (Male WKY rats; [4]) | waking theta and beta power (Male WKY rats; [4]) | Mean SB (specific binding) [2] [dpm] | immobility time in mouse FST (C57BL/6J male mice)
COc1ccc(OC)c(CCNCc2cc(C)cc(Cl)c2)c1 [Compound 2-1, N-(3-chloro-5-methylbenzyl)-2-(2,5-dimethoxyphenyl)ethan-1-amine] | 6 to 8 |  |  |  |  |  |  |  |  |  |  |  | 
CN(C)CCc1c[nH]c2cccc(OP(=O)(O)O)c12 [Psilocybin, psilocybin, reference compound] |  | did not show significant effects | significantly decreased | significantly increased | significantly decreased | significantly increased; also recorded: significantly decreased | significantly decreased | significantly increased | significantly decreased | decreased | significantly increased | 1128 | significant reduction

— patent US12343319B2, “Compositions and methods for treatment of diseases and disorders” (Atai Therapeutics Inc., priority 2023, dated 2025)
